According to article PMC3424240:
Results are given in words; binding and its absence hold for the method and conditions named. Binding seen in cells or lysates may run through a third protein. Binding can be weak; no strength is given.

Sequences of proteins named here, by UniProt entry; tags and fusion partners are left off. A change or cut given only in a name is not applied to a line headed by its entry.
UniProt Q96T37: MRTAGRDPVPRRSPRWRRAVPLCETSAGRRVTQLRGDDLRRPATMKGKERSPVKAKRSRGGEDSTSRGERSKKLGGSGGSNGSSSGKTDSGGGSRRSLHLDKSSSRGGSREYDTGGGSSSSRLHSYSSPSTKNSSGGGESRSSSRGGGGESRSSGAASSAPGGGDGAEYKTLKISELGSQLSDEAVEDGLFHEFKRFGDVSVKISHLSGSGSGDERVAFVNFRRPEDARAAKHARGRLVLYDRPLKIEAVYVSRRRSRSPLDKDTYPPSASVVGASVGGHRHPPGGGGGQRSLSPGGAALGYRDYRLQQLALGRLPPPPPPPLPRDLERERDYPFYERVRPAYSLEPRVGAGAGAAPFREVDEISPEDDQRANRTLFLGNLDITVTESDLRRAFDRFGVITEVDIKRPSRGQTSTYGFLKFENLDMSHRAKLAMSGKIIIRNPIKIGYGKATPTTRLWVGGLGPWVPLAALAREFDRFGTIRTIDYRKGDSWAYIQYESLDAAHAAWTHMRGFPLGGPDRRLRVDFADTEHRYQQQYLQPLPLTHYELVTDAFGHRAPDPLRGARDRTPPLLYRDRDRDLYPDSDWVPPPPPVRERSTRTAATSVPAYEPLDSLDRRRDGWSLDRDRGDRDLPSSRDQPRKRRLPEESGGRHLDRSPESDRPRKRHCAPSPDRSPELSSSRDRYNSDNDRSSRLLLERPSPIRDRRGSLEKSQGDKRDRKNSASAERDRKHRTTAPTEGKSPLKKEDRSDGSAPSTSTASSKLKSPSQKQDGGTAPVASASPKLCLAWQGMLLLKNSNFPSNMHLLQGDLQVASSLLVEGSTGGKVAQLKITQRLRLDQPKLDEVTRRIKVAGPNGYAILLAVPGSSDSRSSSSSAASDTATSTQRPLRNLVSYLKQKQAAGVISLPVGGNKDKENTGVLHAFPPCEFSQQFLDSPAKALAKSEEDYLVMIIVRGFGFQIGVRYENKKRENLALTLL
UniProt Q9UPS6: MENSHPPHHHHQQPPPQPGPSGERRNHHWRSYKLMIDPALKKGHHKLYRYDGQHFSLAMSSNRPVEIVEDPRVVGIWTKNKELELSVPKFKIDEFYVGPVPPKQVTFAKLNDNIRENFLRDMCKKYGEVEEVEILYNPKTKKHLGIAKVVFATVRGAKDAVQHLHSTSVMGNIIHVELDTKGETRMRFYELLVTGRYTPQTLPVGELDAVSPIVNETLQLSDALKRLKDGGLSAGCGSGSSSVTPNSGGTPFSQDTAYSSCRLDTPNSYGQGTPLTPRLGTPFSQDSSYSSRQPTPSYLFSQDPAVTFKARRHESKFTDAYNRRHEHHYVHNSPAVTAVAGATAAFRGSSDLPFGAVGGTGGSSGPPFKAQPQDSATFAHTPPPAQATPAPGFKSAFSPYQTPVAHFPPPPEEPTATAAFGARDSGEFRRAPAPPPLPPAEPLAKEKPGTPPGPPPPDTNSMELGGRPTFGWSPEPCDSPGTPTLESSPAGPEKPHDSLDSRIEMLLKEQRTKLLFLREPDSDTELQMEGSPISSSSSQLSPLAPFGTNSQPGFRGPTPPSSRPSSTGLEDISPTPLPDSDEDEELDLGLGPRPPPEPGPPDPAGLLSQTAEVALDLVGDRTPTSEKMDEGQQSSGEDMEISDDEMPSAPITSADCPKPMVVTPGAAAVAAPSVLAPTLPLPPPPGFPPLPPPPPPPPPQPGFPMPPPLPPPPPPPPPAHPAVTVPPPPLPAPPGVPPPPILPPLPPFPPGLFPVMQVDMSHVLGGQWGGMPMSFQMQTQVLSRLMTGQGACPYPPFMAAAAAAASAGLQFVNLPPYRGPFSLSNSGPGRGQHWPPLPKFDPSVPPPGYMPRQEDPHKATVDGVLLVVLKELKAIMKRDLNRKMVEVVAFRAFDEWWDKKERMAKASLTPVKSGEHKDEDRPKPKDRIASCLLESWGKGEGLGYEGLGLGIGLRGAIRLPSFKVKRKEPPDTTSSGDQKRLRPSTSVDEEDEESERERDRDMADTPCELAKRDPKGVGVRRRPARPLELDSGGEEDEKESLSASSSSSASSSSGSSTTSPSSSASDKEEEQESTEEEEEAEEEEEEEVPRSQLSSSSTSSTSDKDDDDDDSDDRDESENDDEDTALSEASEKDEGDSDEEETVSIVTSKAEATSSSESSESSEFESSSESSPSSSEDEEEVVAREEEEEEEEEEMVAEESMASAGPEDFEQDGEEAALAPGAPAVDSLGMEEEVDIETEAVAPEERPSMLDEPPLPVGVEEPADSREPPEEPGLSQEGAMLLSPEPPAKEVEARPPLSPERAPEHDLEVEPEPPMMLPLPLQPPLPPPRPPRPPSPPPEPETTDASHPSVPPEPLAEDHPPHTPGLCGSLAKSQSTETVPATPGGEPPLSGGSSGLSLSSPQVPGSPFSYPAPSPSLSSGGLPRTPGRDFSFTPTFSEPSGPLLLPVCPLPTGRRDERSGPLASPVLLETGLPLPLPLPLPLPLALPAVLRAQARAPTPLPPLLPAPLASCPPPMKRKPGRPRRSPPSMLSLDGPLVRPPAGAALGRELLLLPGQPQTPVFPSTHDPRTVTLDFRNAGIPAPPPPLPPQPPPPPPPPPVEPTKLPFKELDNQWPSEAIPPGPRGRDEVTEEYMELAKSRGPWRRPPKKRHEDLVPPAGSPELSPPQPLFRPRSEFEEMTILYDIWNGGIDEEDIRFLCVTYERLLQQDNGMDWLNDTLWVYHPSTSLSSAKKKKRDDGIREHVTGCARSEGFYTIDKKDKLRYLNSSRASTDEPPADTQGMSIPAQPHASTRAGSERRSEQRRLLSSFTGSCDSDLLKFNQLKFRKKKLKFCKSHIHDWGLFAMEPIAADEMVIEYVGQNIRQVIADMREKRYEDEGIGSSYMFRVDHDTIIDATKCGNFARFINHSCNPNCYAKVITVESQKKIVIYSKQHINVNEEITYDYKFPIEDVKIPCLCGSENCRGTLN

How the values were obtained:
[1] = biological target: FLAG-Rbm15 mutated at K938 (human) (UniProt Q96T37); experiment: co-IP; FLAG immunoprecipitation from whole cell extracts of transiently transfected HEK293 cells, Western blotting for endogenous partners
[2] = biological target: FLAG-Rbm15 mutated at K942 (human) (UniProt Q96T37); experiment: as above

binding [1]: binds | binding [2]: binds
Substance: endogenous Setd1b (from UniProt Q9UPS6 1-1966)
